Patent US20120010092A1
These are yes or no findings as the source states them, for the method shown. Some entries that bind do so weakly or less than the wild type.

Chains of the proteins cited; added tags and fusions are not shown. Lines headed by an entry give the natural chain unless they say otherwise; changes in a name come on top. A line that says so, or that is headed by a name, gives the form on record, which may keep a tag or linker. Residues count along the entry.
UniProt P61604, residues 2-102: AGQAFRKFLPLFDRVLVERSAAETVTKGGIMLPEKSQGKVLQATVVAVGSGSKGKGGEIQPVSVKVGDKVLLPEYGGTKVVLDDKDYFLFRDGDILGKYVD
UniProt P10809, residues 27-573: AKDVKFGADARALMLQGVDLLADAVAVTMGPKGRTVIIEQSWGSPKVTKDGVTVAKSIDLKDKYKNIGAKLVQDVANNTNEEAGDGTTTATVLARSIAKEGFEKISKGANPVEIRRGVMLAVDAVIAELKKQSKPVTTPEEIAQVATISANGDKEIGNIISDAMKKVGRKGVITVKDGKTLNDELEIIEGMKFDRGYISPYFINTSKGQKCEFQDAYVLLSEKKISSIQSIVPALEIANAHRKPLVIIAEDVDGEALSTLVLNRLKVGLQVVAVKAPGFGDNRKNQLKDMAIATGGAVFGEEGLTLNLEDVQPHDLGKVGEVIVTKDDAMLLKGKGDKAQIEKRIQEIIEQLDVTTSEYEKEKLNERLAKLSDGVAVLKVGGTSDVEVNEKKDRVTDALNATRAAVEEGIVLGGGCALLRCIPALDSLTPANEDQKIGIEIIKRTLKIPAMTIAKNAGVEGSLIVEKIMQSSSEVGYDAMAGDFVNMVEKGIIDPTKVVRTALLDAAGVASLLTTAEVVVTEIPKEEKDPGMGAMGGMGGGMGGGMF
Fhit-His6 (recombinant fragile histidine triad protein with C-terminal His6 epitope tag, expressed from AdFHIT-His6) (P49789, form named): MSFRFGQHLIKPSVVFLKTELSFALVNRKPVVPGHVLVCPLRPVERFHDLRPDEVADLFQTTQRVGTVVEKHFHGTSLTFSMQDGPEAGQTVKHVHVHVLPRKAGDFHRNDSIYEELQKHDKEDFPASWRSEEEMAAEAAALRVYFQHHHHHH

Columns and labels:
[1] = target: T1, Ferredoxin reductase (Fdxr) (human) (UniProt P22570); experiment: Fhit-His6 complex purification after cross-linking
T1 sequence (looked up): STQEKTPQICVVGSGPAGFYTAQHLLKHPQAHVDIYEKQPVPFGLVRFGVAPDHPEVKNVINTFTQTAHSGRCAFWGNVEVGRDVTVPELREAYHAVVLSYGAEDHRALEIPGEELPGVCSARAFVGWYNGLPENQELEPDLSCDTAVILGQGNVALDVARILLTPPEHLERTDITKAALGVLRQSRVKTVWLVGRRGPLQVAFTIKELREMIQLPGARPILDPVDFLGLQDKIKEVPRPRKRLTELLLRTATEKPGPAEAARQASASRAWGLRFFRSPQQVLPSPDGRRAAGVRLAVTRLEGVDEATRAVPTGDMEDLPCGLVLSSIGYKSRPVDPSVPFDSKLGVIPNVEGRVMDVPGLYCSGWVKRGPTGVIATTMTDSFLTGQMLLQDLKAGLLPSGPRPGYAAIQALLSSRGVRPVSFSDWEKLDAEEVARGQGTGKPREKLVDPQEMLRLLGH

[2] = target: Hsp10 (10-kDa heat shock protein) (human) (UniProt P61604); experiment: Fhit-His6 complex purification after cross-linking
[3] = target: Hsp60 (60-kDa heat shock protein) (human) (UniProt P10809); experiment: Fhit-His6 complex purification after cross-linking
[4] = target: T1, Ferredoxin reductase (Fdxr) (human); experiment: DSP cross-linking in A549 cells, nickel-bead pull-down of Fhit-His6, LC-MS/MS
[5] = target: Hsp10 (10-kDa heat shock protein) (human) (UniProt P61604); experiment: as above
[6] = target: Hsp60 (60-kDa heat shock protein) (human) (UniProt P10809); experiment: as above
[7] = target: T1, Ferredoxin reductase (Fdxr) (human); experiment: comparison of selected ion chromatograms, Ad FHIT-His6 sample against control
[8] = target: Hsp10 (10-kDa heat shock protein) (human) (UniProt P61604); experiment: as above
[9] = target: Hsp60 (60-kDa heat shock protein) (human) (UniProt P10809); experiment: as above
[10] = target: T1, Ferredoxin reductase (Fdxr) (human); experiment: time course of Fhit-His6 pull-down after infection of A549 cells, immunoblot (FIG. 2C)
[11] = target: T1, Ferredoxin reductase (Fdxr) (human); experiment: DSP cross-linking in A549 cells, nickel-bead pull-down of Fhit-His6, LC-MS/MS (Table 1)
[12] = target: Hsp10 (10-kDa heat shock protein) (human) (UniProt P61604); experiment: as above
[13] = target: Hsp60 (60-kDa heat shock protein) (human) (UniProt P10809); experiment: as above
[14] = target: Hsp10 (10-kDa heat shock protein) (human) (UniProt P61604); experiment: Fhit-His6 pull-down from A549 cells with or without DSP, immunoblot with anti-Hsp10 (FIG. 2B)
[15] = target: Hsp60 (60-kDa heat shock protein) (human) (UniProt P10809); experiment: Fhit-His6 pull-down from A549 cells with or without DSP, immunoblot with anti-Hsp60 (FIG. 2A)
[16] = target: Hsp10 (10-kDa heat shock protein) (human) (UniProt P61604); experiment: selected ion chromatograms, LC-MS/MS of Fhit-His6 pull-down against control; peptide … of Hsp10
[17] = target: T1, Ferredoxin reductase (Fdxr) (human); experiment: selected ion chromatograms, LC-MS/MS of Fhit-His6 pull-down against control; peptide [..] of Fdxr
[18] = target: Hsp60 (60-kDa heat shock protein) (human) (UniProt P10809); experiment: selected ion chromatograms, LC-MS/MS of Fhit-His6 pull-down against control; peptide [..] of Hsp60
[19] = target: T1, Ferredoxin reductase (Fdxr) (human); experiment: Fhit-His6 pull-down after mitochondria isolation from A549 cells, immunoblot with anti-Fdxr (FIG. 2C)
[20] = target: Hsp60 (60-kDa heat shock protein) (human) (UniProt P10809); experiment: nickel pull-down of DSP cross-linked Fhit-His6 from cytosol and mitochondria of A549 cells, immunoblot (FIG. 3A)
[21] = target: Hsp60 (60-kDa heat shock protein) (human) (UniProt P10809); experiment: His6-tag purification from A549 cells infected with AdFHIT-His6 m.o.i. 20, with or without DSP, immunoblot (FIG. 2A)
[22] = target: Hsp10 (10-kDa heat shock protein) (human) (UniProt P61604); experiment: His6-tag purification from A549 cells infected with AdFHIT-His6 m.o.i. 20, with or without DSP, immunoblot (FIG. 2B)
[23] = target: T1, Ferredoxin reductase (Fdxr) (human); experiment: His6-tag purification from A549 cells infected with AdFHIT-His6 m.o.i. 20, with or without DSP, immunoblot (FIG. 2C)
[24] = target: Hsp60 (60-kDa heat shock protein) (human) (UniProt P10809); experiment: Fhit-H6 nickel pull-down from cytosol and mitochondrial fractions of A549 cells (AdFHIT-His6 m.o.i. 5) after cross-linking, immunoblot (FIG. 3A)

Measured: binding

Fhit-His6 (recombinant fragile histidine triad protein with C-terminal His6 epitope tag, expressed from AdFHIT-His6) (from UniProt P49789 1-147)
binds: all assays above
